{
  "sequences": {"note": "Protein sequences, listed by entry. Tags and fused reporters are not part of them. Residues count along the entry.", "UniProt P21860, residues 20-1342": "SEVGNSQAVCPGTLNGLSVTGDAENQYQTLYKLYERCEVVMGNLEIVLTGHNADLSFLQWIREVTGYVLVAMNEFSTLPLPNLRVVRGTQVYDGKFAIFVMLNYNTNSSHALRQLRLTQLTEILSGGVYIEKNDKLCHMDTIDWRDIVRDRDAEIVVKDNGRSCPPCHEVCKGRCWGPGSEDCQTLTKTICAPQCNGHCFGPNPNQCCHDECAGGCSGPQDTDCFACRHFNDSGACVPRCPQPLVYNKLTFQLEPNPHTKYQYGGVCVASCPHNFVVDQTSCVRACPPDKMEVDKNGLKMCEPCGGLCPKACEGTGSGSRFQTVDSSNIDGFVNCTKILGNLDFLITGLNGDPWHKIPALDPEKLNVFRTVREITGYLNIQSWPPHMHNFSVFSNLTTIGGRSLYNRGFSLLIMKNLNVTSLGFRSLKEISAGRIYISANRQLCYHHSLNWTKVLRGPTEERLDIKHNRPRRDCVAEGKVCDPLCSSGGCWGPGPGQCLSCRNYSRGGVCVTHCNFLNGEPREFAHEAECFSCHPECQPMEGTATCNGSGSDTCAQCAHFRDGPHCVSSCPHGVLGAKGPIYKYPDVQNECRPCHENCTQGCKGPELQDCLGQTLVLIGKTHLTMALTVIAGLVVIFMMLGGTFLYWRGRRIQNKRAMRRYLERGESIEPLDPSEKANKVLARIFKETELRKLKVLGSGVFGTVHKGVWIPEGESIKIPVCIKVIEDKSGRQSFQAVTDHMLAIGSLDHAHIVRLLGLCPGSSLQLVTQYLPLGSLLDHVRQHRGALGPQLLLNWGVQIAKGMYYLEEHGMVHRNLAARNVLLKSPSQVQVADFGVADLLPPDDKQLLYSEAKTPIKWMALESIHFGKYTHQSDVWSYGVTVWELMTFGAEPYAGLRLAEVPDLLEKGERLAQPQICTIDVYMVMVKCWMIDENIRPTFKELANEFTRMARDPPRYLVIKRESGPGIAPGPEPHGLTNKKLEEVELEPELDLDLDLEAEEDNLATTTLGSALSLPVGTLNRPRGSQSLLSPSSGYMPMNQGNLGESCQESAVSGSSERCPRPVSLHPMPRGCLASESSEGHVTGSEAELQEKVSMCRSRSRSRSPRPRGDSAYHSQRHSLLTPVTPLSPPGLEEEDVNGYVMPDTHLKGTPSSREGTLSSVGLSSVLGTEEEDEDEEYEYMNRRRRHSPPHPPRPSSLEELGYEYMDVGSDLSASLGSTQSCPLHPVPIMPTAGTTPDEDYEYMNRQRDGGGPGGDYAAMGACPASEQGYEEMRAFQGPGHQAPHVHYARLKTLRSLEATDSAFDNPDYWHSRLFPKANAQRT"},
  "source": "paper PMC5323190",
  "binders": {"B1": {"name": "DJ-1 in CHO-HER3 cells (protein, UniProt G3IEU2 1-189)", "chain": "MASKRALVILAKGAEEMETVIPVDVMRRAGIKVTIAGLAGKDPVQCSRDVMICPDTSLEDAKKQGPYDVVVLPGGNLGAQNLSESAVVKEILKEQESRKGLIAAICAGPTALLAHEIGFGSKVTTHPGAKDKMINGGHYSYTESRVERDGLILTSQGPGTSFEFALAIVEALSGKEMADKVKAPLLLKD"}},
  "target": "human HER3 (full length), stably overexpressed in CHO cells (CHO-HER3) (human) (UniProt P21860)",
  "experiment": "affinity purification with mass spectrometry; HER3 immunoprecipitation-mass spectrometry (IP-MS) from lysates of CHO cells that stably overexpress human HER3",
  "note": "No constants are given. Whether binding was seen depends on the method and setting. Binding seen in cells or lysates may run through a third protein. A yes stands for co-enrichment or nearness to the bait. Other partners may have been found.",
  "data": [
    {"binder": "B1", "values": [
      {"measurement": "binding", "result": "binds"}
    ]}
  ]
}
